# Values quoted from earlier work in patent US20150018299A1, “TREATMENT OF LIVER CONDITIONS” (CAN-FITE BIOPHARMA LTD., priority 2012, published 2015).
# At least one structure is not confirmed: it was looked up by name or label, or the drawing left a doubt.
# Test system: patients with Child-pugh B
# Settings: Child-pugh B patients treated with Sunitinib; cited from earlier work
compound,measurement,value
CCN(CC)CCNC(=O)c1c(C)[nH]c(/C=C2\C(=O)Nc3ccc(F)cc32)c1C [Sunitinib],Median OS,3.5 months
